Values joined by “and” are separate entries in the source; they are usually repeats but may differ in a detail not shown here. Equal entries are not always repeated.
Key:
[1] = 19F NMR variable temperature measurement in aqueous phosphate buffer (temperature responsiveness); format: physicochemical; settings: for Responsiveness in aqueous phosphate buffer: 10 mM pH 6.9 phosphate buffer/D2O, 5% DMSO; for improvement in aqueous responsiveness relative to PFTBA: phosphate buffer
[2] = 19F NMR variable temperature measurement in THF-d8 (temperature responsiveness); format: physicochemical; settings: for Responsiveness in THF-d8: slope of chemical shift difference of most responsive 19F resonance pair vs temperature; for direction of movement of aryl 19F resonance(s) with increase of temperature: aromatic region of 19F NMR spectra; for increase in responsiveness relative to PFTBA: THF; for Responsiveness in THF-d8 / responsiveness lost from oxidation (sulfone vs parent sulfide DD-1 / DD-3): THF-d8

Row | Structure (SMILES) | Responsiveness in aqueous phosphate buffer [1] | Responsiveness in THF-d8 [2] | improvement in aqueous responsiveness relative to PFTBA [1] [%] | direction of movement of CF2 19F resonances with increase of temperature ([2]; 27 to 47° C.) | direction of movement of aryl 19F resonance(s) with increase of temperature [2] | increase in responsiveness relative to PFTBA [2] | responsiveness lost from oxidation (sulfone vs parent sulfide DD-1 / DD-3) [2] [%]
1 | FC(F)(F)C(F)(F)C(F)(F)C(F)(F)N(C(F)(F)C(F)(F)C(F)(F)C(F)(F)F)C(F)(F)C(F)(F)C(F)(F)C(F)(F)F [CC-1, perfluorotributylamine, reference compound] | 9.62 ×10^−3 ppm/° C. | 9.45 ×10^−3 ppm/° C. | – | – | – | – | –
2 | Fc1c(F)c(-c2c(F)c(F)c(SCCC(F)(F)C(F)(F)C(F)(F)C(F)(F)C(F)(F)C(F)(F)C(F)(F)C(F)(F)F)c(F)c2F)c(F)c(F)c1SCCC(F)(F)C(F)(F)C(F)(F)C(F)(F)C(F)(F)C(F)(F)C(F)(F)C(F)(F)F [CC-2, (perfluoro-[1,1′-biphenyl]-4,4′-diyl)bis((3,3,4,4,5,5,6,6,7,7,8,8,9,9,10,10,10-heptadecafluorodecyl)sulfane), reference compound] | – | 14.5 ×10^−3 ppm/° C. | – | – | – | – | –
3 | Fc1c(F)c(SCCC(F)(F)C(F)(F)C(F)(F)C(F)(F)C(F)(F)C(F)(F)C(F)(F)C(F)(F)F)c(F)c(F)c1SCCC(F)(F)C(F)(F)C(F)(F)C(F)(F)C(F)(F)C(F)(F)C(F)(F)C(F)(F)F [CC-3, (perfluoro-1,4-phenylene)bis((3,3,4,4,5,5,6,6,7,7,8,8,9,9,10,1 0,10-heptadecafluorodecyl)sulfane), reference compound] | – | 14.2 ×10^−3 ppm/° C. | – | – | – | – | –
4 | Fc1c(F)c(SCCCC(F)(F)C(F)(F)F)c(F)c(F)c1SCCCC(F)(F)C(F)(F)F [DD-1, (perfluoro-1,4-phenylene)bis((4,4,5,5,5-pentafluoropentyl)sulfane)] | 17.57±0.05 ×10^−3 ppm/° C. and 17.57 ×10^−3 ppm/° C. and 17.6 ×10^−3 ppm/° C. | 15.98±0.05 ×10^−3 ppm/° C. and ~16 ×10^−3 ppm/° C. and 16.0 ×10^−3 ppm/° C. | 82 | downfield | upfield | – | –
5 | O=S(=O)(CCCC(F)(F)C(F)(F)F)c1c(F)c(F)c(S(=O)(=O)CCCC(F)(F)C(F)(F)F)c(F)c1F [DD-2, 1,2,4,5-tetrafluoro-3,6-bis((4,4,5,5,5-pentafluoropentyl)sulfonyl) benzene] | – | 12.7 ×10^−3 ppm/° C. | – | – | downfield | 1900 | 30
6 | Fc1c(F)c(-c2c(F)c(F)c(SCCCC(F)(F)C(F)(F)F)c(F)c2F)c(F)c(F)c1SCCCC(F)(F)C(F)(F)F [DD-3, (perfluoro-[1,1′-biphenyl]-4,4′-diyl)bis((4,4,5,5,5-pentafluoropentyl)sulfane)] | 16.16 ×10^−3 ppm/° C. and 17.0 ×10^−3 ppm/° C. | ~16 ×10^−3 ppm/° C. and 16.5 ×10^−3 ppm/° C. | 72 | – | upfield | 7500 | –
7 | O=S(=O)(CCCC(F)(F)C(F)(F)F)c1c(F)c(F)c(-c2c(F)c(F)c(S(=O)(=O)CCCC(F)(F)C(F)(F)F)c(F)c2F)c(F)c1F [DD-4, 2,2′,3,3′,5,5′,6,6′-octafluoro-4,4′-bis((4,4,5,5,5-pentafluoropentyl)sulfonyl)-1,1′-biphenyl] | – | 12.9 ×10^−3 ppm/° C. | – | – | downfield | – | 22
8 | Fc1c(F)c(Sc2c(F)c(F)c(SCCCC(F)(F)C(F)(F)F)c(F)c2F)c(F)c(F)c1SCCCC(F)(F)C(F)(F)F [DD-5, bis(2,3,5,6-tetrafluoro-4-((4,4,5,5,5-pentafluoropentyl)thio)phenyl)sulfane] | – | ~16 ×10^−3 ppm/° C. and 16.4 ×10^−3 ppm/° C. | – | – | upfield | – | –
9 | O=S(=O)(c1c(F)c(F)c(SCCCC(F)(F)C(F)(F)F)c(F)c1F)c1c(F)c(F)c(SCCCC(F)(F)C(F)(F)F)c(F)c1F [DD-6, (sulfonylbis(2,3,5,6-tetrafluoro-4,1-phenylene))bis((4,4,5,5,5-pentafluoropentyl)sulfane)] | – | 11.53 ×10^−3 ppm/° C. and 11.5 ×10^−3 ppm/° C. | – | – | downfield | – | –

— patent publication US20240302387A1, “HIGHLY FLUORINATED COMPOUNDS FOR 19F MRI-BASED THERMOMETRY” (Regents of the University of Minnesota, priority 2023, published 2024)
